No constants are given. Whether binding was seen depends on the method and setting. Some entries that bind do so weakly or less than the wild type.
Target: Fat (UniProt P33450)
Test: cell aggregation assay; tissue culture cells; recruitment of Dachs to the site of Ds-Ft binding was looked at (Figures S2L and S2M)

Sequences of proteins named here, by UniProt entry; tags and fusion partners are left off. Residues count along the entry.
UniProt P33450, residues 36-5147: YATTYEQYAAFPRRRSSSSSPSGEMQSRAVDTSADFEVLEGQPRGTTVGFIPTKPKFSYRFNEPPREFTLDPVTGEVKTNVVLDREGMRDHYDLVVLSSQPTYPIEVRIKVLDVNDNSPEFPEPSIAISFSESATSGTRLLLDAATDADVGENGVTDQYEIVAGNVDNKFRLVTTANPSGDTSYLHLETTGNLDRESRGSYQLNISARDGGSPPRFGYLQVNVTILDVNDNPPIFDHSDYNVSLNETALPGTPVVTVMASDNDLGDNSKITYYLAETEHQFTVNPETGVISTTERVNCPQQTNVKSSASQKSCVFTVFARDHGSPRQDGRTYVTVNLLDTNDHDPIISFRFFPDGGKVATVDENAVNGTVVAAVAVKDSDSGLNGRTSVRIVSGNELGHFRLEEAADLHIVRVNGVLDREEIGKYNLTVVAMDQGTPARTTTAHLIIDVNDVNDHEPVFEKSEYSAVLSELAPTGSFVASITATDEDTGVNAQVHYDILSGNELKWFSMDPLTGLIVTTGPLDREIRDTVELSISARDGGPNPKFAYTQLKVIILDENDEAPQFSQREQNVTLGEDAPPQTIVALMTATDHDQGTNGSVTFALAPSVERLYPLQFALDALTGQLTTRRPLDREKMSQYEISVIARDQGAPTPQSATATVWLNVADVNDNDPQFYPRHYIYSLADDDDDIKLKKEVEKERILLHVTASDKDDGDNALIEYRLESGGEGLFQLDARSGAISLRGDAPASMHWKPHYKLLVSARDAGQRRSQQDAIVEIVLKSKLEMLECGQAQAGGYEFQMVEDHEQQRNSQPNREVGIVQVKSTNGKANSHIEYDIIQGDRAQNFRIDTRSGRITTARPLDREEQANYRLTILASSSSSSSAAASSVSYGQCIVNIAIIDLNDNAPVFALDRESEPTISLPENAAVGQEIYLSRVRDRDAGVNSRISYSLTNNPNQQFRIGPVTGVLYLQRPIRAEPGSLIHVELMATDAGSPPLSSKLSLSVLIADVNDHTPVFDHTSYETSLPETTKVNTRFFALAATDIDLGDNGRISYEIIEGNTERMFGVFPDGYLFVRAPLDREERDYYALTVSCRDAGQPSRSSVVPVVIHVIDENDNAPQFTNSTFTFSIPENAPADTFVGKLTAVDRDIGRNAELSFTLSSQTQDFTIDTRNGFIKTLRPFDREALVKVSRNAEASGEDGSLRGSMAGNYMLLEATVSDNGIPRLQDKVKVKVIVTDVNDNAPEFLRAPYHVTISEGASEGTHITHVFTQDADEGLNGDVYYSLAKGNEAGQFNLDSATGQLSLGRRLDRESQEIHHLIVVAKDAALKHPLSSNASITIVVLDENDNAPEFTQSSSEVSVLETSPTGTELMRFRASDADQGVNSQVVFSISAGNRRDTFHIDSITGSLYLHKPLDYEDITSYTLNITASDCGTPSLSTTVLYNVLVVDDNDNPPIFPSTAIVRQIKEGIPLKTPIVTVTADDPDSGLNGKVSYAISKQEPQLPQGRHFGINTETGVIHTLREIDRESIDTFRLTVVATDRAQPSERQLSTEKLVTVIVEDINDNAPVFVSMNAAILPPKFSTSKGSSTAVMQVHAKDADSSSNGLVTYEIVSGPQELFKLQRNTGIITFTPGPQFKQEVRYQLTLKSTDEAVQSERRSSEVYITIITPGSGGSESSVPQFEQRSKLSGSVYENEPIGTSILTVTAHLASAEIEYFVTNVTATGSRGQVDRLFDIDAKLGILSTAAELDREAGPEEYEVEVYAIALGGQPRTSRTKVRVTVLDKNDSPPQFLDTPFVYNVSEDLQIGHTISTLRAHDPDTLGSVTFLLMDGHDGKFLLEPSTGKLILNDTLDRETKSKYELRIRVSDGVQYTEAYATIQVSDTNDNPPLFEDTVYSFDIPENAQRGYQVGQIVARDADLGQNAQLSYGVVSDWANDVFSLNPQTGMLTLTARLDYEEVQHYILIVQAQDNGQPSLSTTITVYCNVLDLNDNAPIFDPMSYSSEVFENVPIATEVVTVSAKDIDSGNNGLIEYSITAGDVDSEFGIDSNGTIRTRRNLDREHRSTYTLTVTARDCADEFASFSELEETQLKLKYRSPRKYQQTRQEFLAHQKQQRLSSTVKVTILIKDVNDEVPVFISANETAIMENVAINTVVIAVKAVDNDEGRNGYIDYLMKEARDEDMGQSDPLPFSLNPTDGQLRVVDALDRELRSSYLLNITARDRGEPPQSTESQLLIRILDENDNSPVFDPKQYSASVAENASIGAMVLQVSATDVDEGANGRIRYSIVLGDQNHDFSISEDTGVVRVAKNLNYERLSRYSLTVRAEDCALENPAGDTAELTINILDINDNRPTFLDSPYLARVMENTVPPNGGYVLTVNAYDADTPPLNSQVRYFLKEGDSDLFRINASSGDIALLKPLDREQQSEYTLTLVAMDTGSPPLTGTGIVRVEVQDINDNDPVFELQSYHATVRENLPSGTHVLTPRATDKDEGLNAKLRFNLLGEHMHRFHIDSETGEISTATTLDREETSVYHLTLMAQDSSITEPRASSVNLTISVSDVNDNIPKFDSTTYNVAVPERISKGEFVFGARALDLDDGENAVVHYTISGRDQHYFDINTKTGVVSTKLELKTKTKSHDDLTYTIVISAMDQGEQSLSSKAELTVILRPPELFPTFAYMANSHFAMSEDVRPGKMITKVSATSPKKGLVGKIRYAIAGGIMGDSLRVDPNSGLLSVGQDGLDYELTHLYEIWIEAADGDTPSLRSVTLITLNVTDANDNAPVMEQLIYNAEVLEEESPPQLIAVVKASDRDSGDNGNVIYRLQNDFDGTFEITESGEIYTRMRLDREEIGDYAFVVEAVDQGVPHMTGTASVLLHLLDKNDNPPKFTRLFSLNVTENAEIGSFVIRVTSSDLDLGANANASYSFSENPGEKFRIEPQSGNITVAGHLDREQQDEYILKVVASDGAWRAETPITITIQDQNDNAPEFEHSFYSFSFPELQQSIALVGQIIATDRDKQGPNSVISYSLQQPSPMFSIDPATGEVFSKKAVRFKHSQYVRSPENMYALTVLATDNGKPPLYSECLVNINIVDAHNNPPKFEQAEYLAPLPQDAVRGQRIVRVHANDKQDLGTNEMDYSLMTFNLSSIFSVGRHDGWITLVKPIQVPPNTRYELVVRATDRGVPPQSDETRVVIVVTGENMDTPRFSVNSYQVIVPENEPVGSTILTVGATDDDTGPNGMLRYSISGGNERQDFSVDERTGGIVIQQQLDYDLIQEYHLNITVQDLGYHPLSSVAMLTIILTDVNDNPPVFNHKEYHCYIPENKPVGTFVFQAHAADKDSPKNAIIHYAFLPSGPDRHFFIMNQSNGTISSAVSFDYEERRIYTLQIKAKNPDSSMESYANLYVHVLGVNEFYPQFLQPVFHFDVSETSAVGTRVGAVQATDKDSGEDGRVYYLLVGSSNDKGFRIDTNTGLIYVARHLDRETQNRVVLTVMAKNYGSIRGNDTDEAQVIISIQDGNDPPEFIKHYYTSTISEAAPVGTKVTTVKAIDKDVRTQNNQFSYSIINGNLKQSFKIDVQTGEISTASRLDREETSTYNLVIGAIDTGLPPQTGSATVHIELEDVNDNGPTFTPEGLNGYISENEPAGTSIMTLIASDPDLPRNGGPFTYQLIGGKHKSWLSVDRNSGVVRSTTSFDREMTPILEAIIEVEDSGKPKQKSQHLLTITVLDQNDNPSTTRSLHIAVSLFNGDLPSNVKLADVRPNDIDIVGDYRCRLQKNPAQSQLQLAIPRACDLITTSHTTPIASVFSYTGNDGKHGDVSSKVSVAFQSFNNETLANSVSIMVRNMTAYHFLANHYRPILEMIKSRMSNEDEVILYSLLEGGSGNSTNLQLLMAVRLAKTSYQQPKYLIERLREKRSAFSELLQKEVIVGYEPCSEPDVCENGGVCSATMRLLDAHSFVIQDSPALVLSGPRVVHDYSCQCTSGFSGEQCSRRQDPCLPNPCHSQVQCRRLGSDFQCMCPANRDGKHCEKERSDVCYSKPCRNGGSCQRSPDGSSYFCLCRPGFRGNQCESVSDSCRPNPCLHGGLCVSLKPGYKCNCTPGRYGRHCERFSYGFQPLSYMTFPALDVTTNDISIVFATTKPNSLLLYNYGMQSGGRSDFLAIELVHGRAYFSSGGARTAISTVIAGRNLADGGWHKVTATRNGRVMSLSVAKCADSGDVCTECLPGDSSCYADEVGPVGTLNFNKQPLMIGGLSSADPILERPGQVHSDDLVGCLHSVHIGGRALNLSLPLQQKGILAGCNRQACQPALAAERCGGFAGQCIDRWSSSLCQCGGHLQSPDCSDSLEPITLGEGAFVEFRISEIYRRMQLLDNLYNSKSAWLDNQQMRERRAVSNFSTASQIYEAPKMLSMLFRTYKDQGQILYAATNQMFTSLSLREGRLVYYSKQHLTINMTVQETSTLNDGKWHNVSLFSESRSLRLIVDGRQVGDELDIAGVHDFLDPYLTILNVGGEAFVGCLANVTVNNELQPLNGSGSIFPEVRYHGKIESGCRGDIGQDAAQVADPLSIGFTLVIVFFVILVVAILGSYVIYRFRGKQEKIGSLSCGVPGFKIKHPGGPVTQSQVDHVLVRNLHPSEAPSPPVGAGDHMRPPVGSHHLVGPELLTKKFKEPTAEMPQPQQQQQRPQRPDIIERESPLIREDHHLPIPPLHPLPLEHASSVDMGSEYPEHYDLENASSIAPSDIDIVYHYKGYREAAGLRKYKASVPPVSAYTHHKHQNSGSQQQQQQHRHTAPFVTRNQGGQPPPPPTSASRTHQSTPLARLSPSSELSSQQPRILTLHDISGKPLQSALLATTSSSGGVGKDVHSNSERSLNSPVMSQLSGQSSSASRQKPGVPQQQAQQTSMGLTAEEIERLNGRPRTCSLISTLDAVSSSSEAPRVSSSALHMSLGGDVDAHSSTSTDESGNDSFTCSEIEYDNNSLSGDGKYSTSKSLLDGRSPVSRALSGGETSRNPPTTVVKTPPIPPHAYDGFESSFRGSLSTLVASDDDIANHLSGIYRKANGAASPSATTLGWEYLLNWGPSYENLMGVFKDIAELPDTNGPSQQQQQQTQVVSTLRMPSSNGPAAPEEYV

Dachsous (from UniProt Q24292 74-3556)
binding: binds

Reference: article PMC3362735
